According to paper PMC7141810, “UBP12 and UBP13 negatively regulate the activity of the ubiquitin-dependent peptidases DA1, DAR1 and DAR2” (eLife, 2020):

T1: GFP-DA1 (Arabidopsis thaliana) (UniProt P0C7Q8)
T1 sequence: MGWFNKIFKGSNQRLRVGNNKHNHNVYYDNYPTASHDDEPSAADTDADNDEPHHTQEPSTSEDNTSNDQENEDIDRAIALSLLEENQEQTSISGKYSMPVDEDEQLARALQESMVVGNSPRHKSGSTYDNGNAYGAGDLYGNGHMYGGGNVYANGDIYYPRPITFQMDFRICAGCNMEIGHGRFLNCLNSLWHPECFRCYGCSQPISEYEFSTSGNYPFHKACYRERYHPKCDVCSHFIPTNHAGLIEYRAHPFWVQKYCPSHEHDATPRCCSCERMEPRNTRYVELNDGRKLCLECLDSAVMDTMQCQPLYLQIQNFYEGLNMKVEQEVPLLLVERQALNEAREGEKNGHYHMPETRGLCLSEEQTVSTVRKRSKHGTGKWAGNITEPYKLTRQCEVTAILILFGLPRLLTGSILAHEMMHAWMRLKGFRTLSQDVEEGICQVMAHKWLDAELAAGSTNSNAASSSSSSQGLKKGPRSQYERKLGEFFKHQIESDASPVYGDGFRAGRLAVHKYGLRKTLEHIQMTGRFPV

T2: GFP-DAR1 (Arabidopsis thaliana) (UniProt Q8W4F0)
T2 sequence: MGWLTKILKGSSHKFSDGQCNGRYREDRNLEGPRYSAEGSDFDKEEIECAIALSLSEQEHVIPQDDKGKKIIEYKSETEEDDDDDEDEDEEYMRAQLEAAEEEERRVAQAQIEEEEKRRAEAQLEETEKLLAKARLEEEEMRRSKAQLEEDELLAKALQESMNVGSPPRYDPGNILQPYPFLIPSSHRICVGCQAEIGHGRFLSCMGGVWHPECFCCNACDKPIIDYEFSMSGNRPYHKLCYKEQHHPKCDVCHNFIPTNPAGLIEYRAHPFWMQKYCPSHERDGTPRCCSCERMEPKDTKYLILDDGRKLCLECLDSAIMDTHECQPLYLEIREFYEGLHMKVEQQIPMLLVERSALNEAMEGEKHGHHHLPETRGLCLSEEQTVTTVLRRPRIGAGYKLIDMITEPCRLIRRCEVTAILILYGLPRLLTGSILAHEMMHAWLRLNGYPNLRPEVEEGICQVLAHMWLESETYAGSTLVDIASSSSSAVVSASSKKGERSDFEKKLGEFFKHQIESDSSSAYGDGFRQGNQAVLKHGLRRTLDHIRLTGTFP

T3: GFP-DAR2 (Arabidopsis thaliana) (UniProt Q0WSN2)
T3 sequence: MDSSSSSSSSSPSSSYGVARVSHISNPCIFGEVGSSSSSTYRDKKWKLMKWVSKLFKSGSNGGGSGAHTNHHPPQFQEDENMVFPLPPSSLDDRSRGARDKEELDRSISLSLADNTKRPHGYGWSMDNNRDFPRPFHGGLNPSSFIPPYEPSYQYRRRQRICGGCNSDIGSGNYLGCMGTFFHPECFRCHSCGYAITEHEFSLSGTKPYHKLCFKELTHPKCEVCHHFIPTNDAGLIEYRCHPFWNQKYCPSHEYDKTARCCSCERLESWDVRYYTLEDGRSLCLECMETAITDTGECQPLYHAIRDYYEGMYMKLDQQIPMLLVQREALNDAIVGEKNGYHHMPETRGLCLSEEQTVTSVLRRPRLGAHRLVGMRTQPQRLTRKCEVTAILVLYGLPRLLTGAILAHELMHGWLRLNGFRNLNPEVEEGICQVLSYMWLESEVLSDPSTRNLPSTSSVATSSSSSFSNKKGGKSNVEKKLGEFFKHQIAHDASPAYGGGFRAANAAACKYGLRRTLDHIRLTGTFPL


Experiments:
Assay in all cases: affinity purification with mass spectrometry; total protein extracts of eight-day-old Arabidopsis seedlings overexpressing GFP-tagged bait, incubated with anti-GFP beads (uMacs) 1 hr at 4°C, BHB+ buffer; on-bead digestion, MS/MS, label free quantification against control
[1] = target: T1, GFP-DA1 (Arabidopsis thaliana)
[2] = target: T2, GFP-DAR1 (Arabidopsis thaliana)
[3] = target: T3, GFP-DAR2 (Arabidopsis thaliana)

binding [1] | binding [2] | binding [3] | Binder
binds | binds | – | UBP13 (enzyme, UniProt Q84WU2 1-1115) MTMMTPPPLDQQEDEEMLVPNPDLVEGPQPMEVAQTDPAATAVENPPPEDPPSLKFTWTIPMFTRLNTRKHYSDVFVVGGYKWRILIFPKGNNVDHLSMYLDVADAANLPYGWSRYSQFSLAVVNQVNNRYSIRKETQHQFNARESDWGFTSFMPLSELYEPTRGYLVNDTVLIEAEVAVRKVLDYWSYDSKKETGFVGLKNQGATCYMNSLLQTLYHIPYFRKAVYHMPTTENDAPTASIPLALQSLFYKLQYNDTSVATKELTKSFGWDTYDSFMQHDVQELNRVLCEKLEDKMKGTVVEGTIQKLFEGHHMNYIECINVDYKSTRKESFYDLQLDVKGCKDVYASFDKYVEVERLEGDNKYHAEGHDLQDAKKGVLFIDFPPVLQLQLKRFEYDFMRDTMVKINDRYEFPLQLDLDREDGRYLSPDADKSVRNLYTLHSVLVHSGGVHGGHYYAFIRPTLSDQWYKFDDERVTKEDVKRALEEQYGGEEELPQNNPGFNNPPFKFTKYSNAYMLVYIRESDKDKIICNVDEKDIAEHLRVRLKKEQEEKEDKRKYKAQAHLFTTIKVARDDDITEQIGKNIYFDLVDHEKVRSFRIQKQTPFQQFKEEVAKEFGVPVQLQRFWIWAKRQNHTYRPNRPLSPNEELQTVGQIREASNKANNAELKLFLEIERGPDDLPIPPPEKTSEDILLFFKLYDPENAVLRYVGRLMVKSSSKPMDIVGQLNKMAGFAPDEEIELFEEIKFEPCVMCEQIDKKTSFRLCQIEDGDIICYQKPLSIEESEFRYPDVPSFLEYVQNRELVRFRTLEKPKEDEFTMELSKLHTYDDVVERVAEKLGLDDPSKLRLTSHNCYSQQPKPQPIKYRGVDHLSDMLVHYNQTSDILYYEVLDIPLPELQGLKTLKVAFHSATKDEVIIHNIRLPKQSTVGDVINELKTKVELSHQDAELRLLEVFFHKIYKIFPSTERIENINDQYWTLRAEEIPEEEKNIGPNDRLIHVYHFTKEAGQNQQVQNFGEPFFLVIHEGETLEEIKTRIQKKLHVPDEDFAKWKFASFSMGRPDYLLDTDVVYNRFQRRDVYGAWEQYLGLEHIDNAPKRAYAANQNRHAYEKPVKIYN
binds | binds | binds | UBIQUITIN-SPECIFIC PROTEASE 12 (UBP12) (enzyme, UniProt Q9FPT1 1-1116) MTMMTPPPVDQPEDEEMLVPNSDLVDGPAQPMEVTQPETAASTVENQPAEDPPTLKFTWTIPNFSRQNTRKHYSDVFVVGGYKWRILIFPKGNNVDHLSMYLDVSDAASLPYGWSRYAQFSLAVVNQIHTRYTVRKETQHQFNARESDWGFTSFMPLSELYDPSRGYLVNDTVLVEAEVAVRKVLDYWSYDSKKETGFVGLKNQGATCYMNSLLQTLYHIPYFRKAVYHMPTTENDAPTASIPLALQSLFYKLQYNDTSVATKELTKSFGWDTYDSFMQHDVQELNRVLCEKLEDKMKGTVVEGTIQQLFEGHHMNYIECINVDFKSTRKESFYDLQLDVKGCKDVYASFDKYVEVERLEGDNKYHAEGHGLQDAKKGVLFIDFPPVLQLQLKRFEYDFMRDTMVKINDRYEFPLELDLDREDGKYLSPDADRSVRNLYTLHSVLVHSGGVHGGHYYAFIRPTLSDQWYKFDDERVTKEDLKRALEEQYGGEEELPQTNPGFNNNPPFKFTKYSNAYMLVYIRESDKDKIICNVDEKDIAEHLRVRLKKEQEEKEDKRRYKAQAHLYTIIKVARDEDLKEQIGKDIYFDLVDHDKVRSFRIQKQTPFQQFKEEVAKEFGVPVQLQRFWIWAKRQNHTYRPNRPLTPQEELQPVGQIREASNKANTAELKLFLEVEHLDLRPIPPPEKSKEDILLFFKLYDPEKAVLSYAGRLMVKSSSKPMDITGKLNEMVGFAPDEEIELFEEIKFEPCVMCEHLDKKTSFRLCQIEDGDIICFQKPLVNKEIECLYPAVPSFLEYVQNRQLVRFRALEKPKEDEFVLELSKQHTYDDVVEKVAEKLGLDDPSKLRLTSHNCYSQQPKPQPIKYRGVDHLSDMLVHYNQTSDILYYEVLDIPLPELQGLKTLKVAFHHATKEEVVIHNIRLPKQSTVGDVINELKTKVELSHPDAELRLLEVFYHKIYKIFPSTERIENINDQYWTLRAEEIPEEEKNIGPNDRLILVYHFAKETGQNQQVQNFGEPFFLVIHEGETLEEIKNRIQKKLHVSDEDFAKWKFAFMSMGRPEYLQDTDVVYNRFQRRDVYGAFEQYLGLEHADTTPKRAYAANQNRHAYEKPVKIYN

Results are given in words; binding and its absence hold for the method and conditions named. In cells and extracts the contact can be indirect. A yes stands for co-enrichment or nearness to the bait. Other partners may have been found. Sequences can lack the tags named with a protein.
